PubChem BioAssay AID652243, Drosophila RNAi Screening Center – 2013

Screen: 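Knock-downs that decrease or increase androgen receptor reporter signal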 (primary screen)
System: Drosophila S2R+ cells
Reagent: long dsRNA against Drosophila genes
Time to read-out: 72 h (48 h, then 24 h hormone)
Treatment: synthetic androgen R1881 at 10 nM for 24 h
Read-out: 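Firefly light from an androgen-responsive reporter and Renilla control light per well, raw and unnormalised, for each of two replicates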
Direction: firefly reporter light: higher = more light from androgen-responsive reporter; Renilla control light: higher = more constitutive control signal (cell number, transfection)
Call rule: 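Hit when the log firefly-to-Renilla ratio dropped or increased by a fixed fold versus the mean of GFP or LacZ controls across duplicate plates; lowering cut given as 1.5 and as 3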
Calls: active = hit: reporter lowered or raised; inactive = no hit
In all, the deposit lists about 24,000 reagents; this is an unselected part of those with a known target gene and a result. Of all reagents, 246 (1%) are marked active. 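Plates not normalised; calls are printed but the firefly/Renilla ratio behind them is not deposited; fold cut for lowering reported inconsistently.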 Raw values are not corrected between plates. The numbers tell different reagents against one gene apart. A plus sign joins genes that one reagent is predicted to hit. Not stated in the record: the amount of reagent.

gwl #1
- firefly reporter light, replicate 1: 51182
- firefly reporter light, replicate 2: 36348
- Renilla control light, replicate 1: 3.32e5
- Renilla control light, replicate 2: 3.66e5
- Outcome: inactive

gwl #2
- Outcome: inactive

gwl #3
- Outcome: inactive

CG8138
- firefly reporter light, replicate 1: 1.15e5
- firefly reporter light, replicate 2: 1.30e5
- Renilla control light, replicate 1: 1.86e6
- Renilla control light, replicate 2: 1.82e6
- Outcome: inactive

vret
- firefly reporter light, replicate 1: 1.04e5
- firefly reporter light, replicate 2: 1.04e5
- Renilla control light, replicate 1: 9.52e5
- Renilla control light, replicate 2: 9.81e5
- Outcome: inactive

c(2)M
- firefly reporter light, replicate 1: 1.26e6
- firefly reporter light, replicate 2: 1.15e6
- Renilla control light, replicate 1: 1.97e6
- Renilla control light, replicate 2: 1.86e6
- Outcome: inactive

Mp20 #1
- firefly reporter light, replicate 1: 4.41e5
- firefly reporter light, replicate 2: 3.22e5
- Renilla control light, replicate 1: 1.99e6
- Renilla control light, replicate 2: 1.79e6
- Outcome: inactive

Mp20 #2
- firefly reporter light, replicate 1: 3.73e5
- firefly reporter light, replicate 2: 5.64e5
- Renilla control light, replicate 1: 1.46e6
- Renilla control light, replicate 2: 1.59e6
- Outcome: inactive

CG33140 #1
- firefly reporter light, replicate 1: 8.64e5
- firefly reporter light, replicate 2: 5.15e5
- Renilla control light, replicate 1: 1.28e6
- Renilla control light, replicate 2: 1.52e6
- Outcome: inactive

CG33140 #2
- firefly reporter light, replicate 1: 3.62e5
- firefly reporter light, replicate 2: 2.99e5
- Renilla control light, replicate 1: 5.86e5
- Renilla control light, replicate 2: 5.03e5
- Outcome: inactive

ca #1
- firefly reporter light, replicate 1: 57810
- firefly reporter light, replicate 2: 84963
- Renilla control light, replicate 1: 7.84e5
- Renilla control light, replicate 2: 9.12e5
- Outcome: inactive

ca #2
- firefly reporter light, replicate 1: 1.02e5
- firefly reporter light, replicate 2: 1.53e5
- Renilla control light, replicate 1: 1.80e6
- Renilla control light, replicate 2: 1.99e6
- Outcome: inactive

ca #3
- firefly reporter light, replicate 1: 1.90e5
- firefly reporter light, replicate 2: 1.91e5
- Renilla control light, replicate 1: 2.84e6
- Renilla control light, replicate 2: 2.95e6
- Outcome: inactive

Ste:CG33238 + Ste:CG33241 + Ste:CG33236 + 11 more #1
- firefly reporter light, replicate 1: 6.10e5
- firefly reporter light, replicate 2: 4.63e5
- Renilla control light, replicate 1: 5.50e5
- Renilla control light, replicate 2: 3.74e5
- Outcome: inactive

Ste:CG33238 + Ste:CG33241 + Ste:CG33236 + 11 more #2
- firefly reporter light, replicate 1: 1.83e5
- firefly reporter light, replicate 2: 2.14e5
- Renilla control light, replicate 1: 6.42e5
- Renilla control light, replicate 2: 6.56e5
- Outcome: inactive

nebu #1
- firefly reporter light, replicate 1: 7.12e5
- firefly reporter light, replicate 2: 6.92e5
- Renilla control light, replicate 1: 1.85e6
- Renilla control light, replicate 2: 2.44e6
- Outcome: inactive

nebu #2
- firefly reporter light, replicate 1: 2.48e5
- firefly reporter light, replicate 2: 2.34e5
- Renilla control light, replicate 1: 2.45e6
- Renilla control light, replicate 2: 1.75e6
- Outcome: inactive

CG3803
- firefly reporter light, replicate 1: 2.97e5
- firefly reporter light, replicate 2: 2.71e5
- Renilla control light, replicate 1: 1.67e6
- Renilla control light, replicate 2: 1.51e6
- Outcome: inactive

Noa36
- firefly reporter light, replicate 1: 1.06e5
- firefly reporter light, replicate 2: 72866
- Renilla control light, replicate 1: 7.04e5
- Renilla control light, replicate 2: 5.96e5
- Outcome: inactive

CG7236 #1
- firefly reporter light, replicate 1: 47125
- firefly reporter light, replicate 2: 33420
- Renilla control light, replicate 1: 4.43e5
- Renilla control light, replicate 2: 4.09e5
- Outcome: inactive

CG7236 #2
- firefly reporter light, replicate 1: 5.24e5
- firefly reporter light, replicate 2: 4.05e5
- Renilla control light, replicate 1: 1.14e6
- Renilla control light, replicate 2: 6.47e5
- Outcome: inactive

CG33965
- firefly reporter light, replicate 1: 2.47e5
- firefly reporter light, replicate 2: 2.55e5
- Renilla control light, replicate 1: 7.46e5
- Renilla control light, replicate 2: 6.75e5
- Outcome: inactive

wam
- firefly reporter light, replicate 1: 1.56e5
- firefly reporter light, replicate 2: 2.15e5
- Renilla control light, replicate 1: 1.65e6
- Renilla control light, replicate 2: 2.02e6
- Outcome: inactive

CG15617 #1
- firefly reporter light, replicate 1: 82093
- firefly reporter light, replicate 2: 1.39e5
- Renilla control light, replicate 1: 1.22e6
- Renilla control light, replicate 2: 1.22e6
- Outcome: inactive

CG15617 #2
- firefly reporter light, replicate 1: 7.34e5
- firefly reporter light, replicate 2: 4.37e5
- Renilla control light, replicate 1: 1.37e6
- Renilla control light, replicate 2: 6.75e5
- Outcome: inactive

CG32086
- firefly reporter light, replicate 1: 2.75e5
- firefly reporter light, replicate 2: 1.55e5
- Renilla control light, replicate 1: 2.81e6
- Renilla control light, replicate 2: 1.30e6
- Outcome: inactive

CG3823 #1
- firefly reporter light, replicate 1: 1.63e5
- firefly reporter light, replicate 2: 2.17e5
- Renilla control light, replicate 1: 2.61e6
- Renilla control light, replicate 2: 2.17e6
- Outcome: inactive

CG3823 #2
- firefly reporter light, replicate 1: 3.05e5
- firefly reporter light, replicate 2: 3.11e5
- Renilla control light, replicate 1: 5.51e5
- Renilla control light, replicate 2: 4.09e5
- Outcome: inactive

Reformatted: entries from further up.
gwl #1: firefly reporter light, replicate 1 = 51182; firefly reporter light, replicate 2 = 36348; Renilla control light, replicate 1 = 3.32e5; Renilla control light, replicate 2 = 3.66e5; Outcome = inactive
gwl #2: Outcome = inactive
gwl #3: Outcome = inactive
CG8138: firefly reporter light, replicate 1 = 1.15e5; firefly reporter light, replicate 2 = 1.30e5; Renilla control light, replicate 1 = 1.86e6; Renilla control light, replicate 2 = 1.82e6; Outcome = inactive
